Test system: K562 cells
Test: K562 cell viability assay (resazurin)
Format: cell-based, human
Conditions: SI = CC50 normal cell (WSS-1)/CC50 cancer cell (K562)

Row | Compound | SI WSS-1/K562
1 | Cc1ccc(Nc2ccnc3ccccc23)cc1Nc1nccc(-c2cccnc2)n1 [2g, 4-Methyl-N^3-(4-(pyridin-3-yl)pyrimidin-2-yl)-N^1-(quinolin-4-yl)benzene-1,3-diamine] | 0.2
2 | Cc1ccc(Nc2ccc3cccc(Cl)c3n2)cc1Nc1nccc(-c2cccnc2)n1 [2h, N^1-(8-Chloroquinolin-2-yl)-4-methyl-N^3-(4-(pyridin-3-yl)pyrimidin-2-yl)benzene-1,3-diamine] | 0.8

From publication PMC8950477 (Pharmaceuticals, 2022)
